Data source: PubChem BioAssay AID652243 (Drosophila RNAi Screening Center, 2013)

Test: 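Fly genes required for human androgen receptor driven transcription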 (primary screen)
Cell system: Drosophila S2R+ cells
Reagents: long dsRNA against Drosophila genes
Time to read-out: 72 h (48 h, then 24 h hormone)
Conditions: synthetic androgen R1881 at 10 nM for 24 h
Detection: 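Per-well raw luminescence of the androgen-driven firefly reporter and of the Renilla control, two replicates each, without normalisation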
Scale: firefly reporter light: higher = more light from androgen-responsive reporter; Renilla control light: higher = more constitutive control signal (cell number, transfection)
Hit rule: 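Hit when the log firefly-to-Renilla ratio dropped or increased by a fixed fold versus the mean of GFP or LacZ controls across duplicate plates; lowering cut given as 1.5 and as 3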
Calls: active = hit: reporter lowered or raised; inactive = no hit
In all, the deposit lists about 24,000 reagents; this is a random part of those that have a named target and a result. Of all reagents, 246 (1%) are marked active. 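Plates not normalised; calls are printed but the firefly/Renilla ratio behind them is not deposited; fold cut for lowering reported inconsistently.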 The raw values are shown without normalisation. A plus sign joins genes that one reagent is predicted to hit. Not stated in the record: the amount of reagent.

no.	predicted target	amplicon	firefly reporter light, replicate 1	firefly reporter light, replicate 2	Renilla control light, replicate 1	Renilla control light, replicate 2	activity call
1	CG4707	DRSC04483	6.11e5	5.24e5	1.03e6	1.01e6	inactive
2	CAH1 + Adat1	DRSC02009	1.50e6	8.34e5	2.11e6	1.44e6	inactive
3	CG14957	DRSC08416	1.60e5	1.77e5	2.48e6	2.82e6	inactive
4	CSN3 (COP9 signalosome subunit 3)	DRSC11859	89890	96665	1.16e6	1.27e6	inactive
5	CSN3 (COP9 signalosome subunit 3)	DRSC25919	4.23e5	5.38e5	9.71e5	8.56e5	inactive
6	mah (mahogany)	DRSC14645	2.30e5	2.07e5	3.22e6	2.44e6	inactive
7	mah (mahogany)	DRSC28300	6.57e5	8.45e5	1.57e6	1.97e6	inactive
8	Df31 (Decondensation factor 31)	DRSC03738	3.89e5	3.98e5	2.23e6	2.63e6	inactive
9	Df31 (Decondensation factor 31)	DRSC22163	6.88e5	5.49e5	2.44e6	1.99e6	inactive
10	salto	DRSC06291	1.18e6	1.39e6	1.36e6	1.37e6	inactive
11	salto	DRSC29983	5.97e5	3.37e5	1.28e6	9.31e5	inactive
12	Rrp5 (Ribosomal RNA Processing 5)	DRSC15862	51528	51085	4.24e5	3.94e5	inactive
13	Rrp5 (Ribosomal RNA Processing 5)	DRSC29039	1.03e6	7.71e5	1.27e6	7.79e5	inactive
14	ths (thisbe)	DRSC23123	4.26e5	5.26e5	6.81e5	1.03e6	inactive
15	ths (thisbe)	DRSC27271	1.49e5	2.13e5	5.21e5	5.34e5	inactive
16	phtm (phantom)	DRSC20237	2.57e5	1.05e5	1.10e6	3.06e5	inactive
17	phtm (phantom)	DRSC26997	3.36e5	3.79e5	8.11e5	3.88e5	inactive
18	Srp9 (Signal recognition particle 9)	DRSC10973	2.73e5	2.06e5	1.77e6	1.05e6	inactive
19	salr (spalt-related)	DRSC03607	1.65e5	1.47e5	1.04e6	1.28e6	inactive
20	be (ben)	DRSC19607	1.02e5	1.20e5	1.35e6	1.29e6	inactive
21	be (ben)	DRSC19944	3.52e5	4.30e5	3.07e6	3.09e6	inactive
22	be (ben)	DRSC19945	5.60e5	4.90e5	2.66e6	3.40e6	inactive
23	RNaseX25 (Ribonuclease X25)	DRSC11259	7.72e5	3.90e5	1.77e6	1.25e6	inactive
24	RNaseX25 (Ribonuclease X25)	DRSC29835	8.23e5	7.00e5	1.31e6	1.71e6	inactive
25	CG7196 (retired record)	DRSC01000	1.96e5	1.89e5	1.03e6	8.39e5	inactive
26	CG7196 (retired record)	DRSC03023	94939	1.15e5	1.27e6	1.20e6	inactive
27	CG31407	DRSC12761	1.43e5	66014	1.28e5	1.39e5	inactive
28	CG43386	DRSC17980	2.08e5	4.00e5	1.78e6	3.17e6	inactive
29	Acn (Acinus)	DRSC02062	5.37e5	7.95e5	8.59e5	9.86e5	inactive
30	Acn (Acinus)	DRSC29245	4.01e5	5.21e5	1.00e6	8.04e5	inactive
31	Mtp (Microsomal triacylglycerol transfer protein)	DRSC03216	1.51e6	1.30e6	4.02e6	2.57e6	inactive
32	pcm (pacman)	DRSC20361	1.42e5	1.61e5	9.28e5	7.80e5	inactive
33	pdgy (pudgy)	DRSC19064	5.58e5	7.72e5	1.66e6	2.07e6	inactive
34	pdgy (pudgy)	DRSC19341	1.06e5	1.15e5	7.00e5	8.52e5	inactive
35	ringer (ringmaker)	DRSC10455	2.86e5	1.54e5	1.71e6	9.56e5	inactive
36	CG17168	DRSC20904	2.18e5	1.33e5	5.11e5	3.21e5	inactive
37	CG17168	DRSC29872	5.75e5	4.89e5	1.26e6	7.52e5	inactive
38	CG32006	DRSC21768	5.09e5	5.07e5	2.32e6	2.50e6	inactive
39	CG32006	DRSC28120	4.87e5	2.80e5	1.72e6	1.40e6	inactive
40	CG7484	DRSC10853	3.22e5	2.53e5	3.00e6	2.85e6	inactive
41	CG15576	DRSC18064	2.42e5	2.67e5	4.11e6	2.34e6	inactive
42	CG4049	DRSC04443	2.68e5	3.40e5	2.29e6	2.01e6	inactive
43	CG4049	DRSC29138	7.79e5	9.06e5	1.28e6	1.09e6	inactive
44	Capr (Caprin)	DRSC10346	1.56e5	1.80e5	2.16e6	2.75e6	inactive
45	Capr (Caprin)	DRSC26777	4.52e5	4.37e5	4.19e5	5.25e5	inactive
46	CG33500	DRSC09115	2.84e5	1.54e5	1.34e5	1.36e5	inactive
47	CG7856	DRSC04896	2.64e5	3.58e5	2.18e6	2.68e6	inactive
48	tHMG2 (testis-enriched HMG-box-containing protein 2)	DRSC16182	3.53e5	4.55e5	4.23e6	4.07e6	inactive
49	CanA-14F + Pp2B-14D	DRSC36822					inactive
50	Tbc1d8-9 (TBC1 domain family member 8/9)	DRSC11820	81457	53168	2.44e5	2.98e5	inactive
51	robo2 (roundabout 2)	DRSC00377	1.37e5	1.07e5	1.02e6	1.10e6	inactive
52	robo2 (roundabout 2)	DRSC00378	1.66e5	1.25e5	9.31e5	7.93e5	inactive
53	robo2 (roundabout 2)	DRSC00686	86751	1.24e5	6.25e5	7.44e5	inactive
54	robo2 (roundabout 2)	DRSC00691	2.85e5	3.17e5	8.83e5	1.02e6	inactive
55	cwo (clockwork orange)	DRSC17072	1.11e5	1.34e5	1.41e6	1.50e6	inactive
56	cwo (clockwork orange)	DRSC25219	2.69e5	3.70e5	8.02e5	5.09e5	inactive
57	Dph2 (Diphthamide biosynthesis 2)	DRSC16222	39010	61932	3.52e5	3.15e5	inactive
58	Dph2 (Diphthamide biosynthesis 2)	DRSC26401	1.78e5	2.77e5	4.38e5	6.35e5	inactive

Single entries from above:
Under “firefly reporter light, replicate 2”, robo2 (roundabout 2) [DRSC00377] reads 1.07e5
Entry for RNaseX25 (Ribonuclease X25) [DRSC29835] in “firefly reporter light, replicate 1”: 8.23e5
Entry for mah (mahogany) [DRSC14645] under “firefly reporter light, replicate 2”: 2.07e5
Value for RNaseX25 (Ribonuclease X25) [DRSC11259] in “firefly reporter light, replicate 2”: 3.90e5
Under “activity call”, CG17168 [DRSC29872] has inactive
CanA-14F + Pp2B-14D [DRSC36822], activity call = inactive
